Results deposited as PubChem BioAssay AID686937 (Drosophila RNAi Screening Center, 2013).

Screen: 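Knock-downs that reduce output of a secreted reporter enzyme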 (primary screen)
Cells: Drosophila S2 cells expressing secreted horseradish peroxidase
Knock-down reagent: long dsRNA against Drosophila genes
Timing: about 5.5 days (5 days dsRNA, then 12 h reporter induction)
Treatment: reporter expression induced after 5 days of dsRNA, read 12 h later; inducer not stated
Read-out: 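After 5 days of dsRNA and 12 h of reporter induction, medium peroxidase read by chemiluminescence and scored as per-plate z-score; higher values mean more reporter released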
Reading the numbers: z-score: higher = more reporter secreted into medium
In all, the deposit lists about 23,000 reagents; below is a random part of those that have a named target and a result. 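Reduced-secretion tags in replicate 1 do not always agree with the z-scores; no criterion for assigning the tags was given.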 Names joined by + are all predicted targets of the reagent. Not given: the amount of reagent.

Target gene,dsRNA,"z-score, replicate 1","z-score, replicate 2","z-score, replicate 3","z-score, replicate 4","phenotype, replicate 1"
babo (baboon),DRSC07581,0.22,0.02,,,
CG31013,DRSC16542,0.16,0.07,,,
BomS6 (Bomanin Short 6),DRSC21676,-0.12,-0.37,,,
CG11313,DRSC14295,0.31,0.51,,,
cup,DRSC03516,0.23,-0.11,,,
Bap170 (Brahma associated protein 170kD),DRSC04964,0.06,0.07,,,
Bap170 (Brahma associated protein 170kD),DRSC21826,0.02,0.91,,,
CG31226,DRSC21724,-2.04,0.53,,,reduced secretion
CG15296,DRSC17983,0.33,0.35,,,
CG6028,DRSC15951,0.47,0.45,,,
CG18586,DRSC10325,0.33,0.21,,,
CG43312,DRSC11559,0.53,0.19,,,
CG14252,DRSC14747,0.28,0.62,,,
CG31867,DRSC03338,-0.04,-0.06,,,
Cpr (Cytochrome P450 reductase),DRSC03293,0.29,0.24,,,
CG6154,DRSC15977,0.23,0.07,,,
CG34345,DRSC02126,0.3,0.11,,,
mRpS14 (mitochondrial ribosomal protein S14),DRSC19444,-0.37,0.03,,,
Cyp4d20 (Cytochrome P450 4d20),DRSC08654,0.36,0.36,,,
TTLL12 (Tubulin tyrosine ligase-like 12),DRSC06555,0.41,0.38,,,
Ir68b (Ionotropic receptor 68b),DRSC10251,0.43,0.25,,,
dco (discs overgrown),DRSC16929,-0.08,-0.37,,,
CG5339,DRSC04496,0.24,0.3,,,
Madm (MLF1-adaptor molecule),DRSC12129,-2.13,-1.17,,,reduced secretion
Aplip1 (APPL-interacting protein 1),DRSC07947,1,0.55,,,
Aplip1 (APPL-interacting protein 1),DRSC08697,0.51,0.51,,,
Aplip1 (APPL-interacting protein 1),DRSC21587,-0.12,0.11,,,
CG34187 (retired record) + Trpm,DRSC05543,0.38,-0.15,,,
Arp10 (Actin-related protein 10),DRSC19448,0.03,0.26,,,
CG4678,DRSC19911,-0.2,-0.04,,,
CG4678,DRSC19912,0.14,0.22,,,

4 consecutive entries already listed, for reference:
Target gene,dsRNA,"z-score, replicate 1","z-score, replicate 2","z-score, replicate 3","z-score, replicate 4","phenotype, replicate 1"
cup,DRSC03516,0.23,-0.11,,,
Bap170 (Brahma associated protein 170kD),DRSC04964,0.06,0.07,,,
Bap170 (Brahma associated protein 170kD),DRSC21826,0.02,0.91,,,
CG31226,DRSC21724,-2.04,0.53,,,reduced secretion

Further reagents:
Target gene,dsRNA,"z-score, replicate 1","z-score, replicate 2","z-score, replicate 3","z-score, replicate 4","phenotype, replicate 1"
Fum1 (Fumarase 1),DRSC18344,0.38,0.54,1.55,0.65,
CG31142,DRSC13647,-0.69,-0.09,,,
CG40948 (retired record),DRSC20944,0.25,0.7,,,
"DCTN3-p24 (Dynactin 3, p24 subunit)",DRSC04592,-0.06,0.16,,,
CG14442,DRSC17935,-0.27,0.14,,,
Fdh (Formaldehyde dehydrogenase),DRSC16670,0.19,0.22,,,
Dis3,DRSC16034,-1.58,-1.12,,,reduced secretion
CG13155,DRSC06280,0.45,0.42,,,
Jon99Ci (Jonah 99Ci),DRSC16860,0.1,-0.3,,,
Cenp-C (Centromeric protein-C),DRSC14371,-1.62,-2.09,,,reduced secretion
CG42399,DRSC00322,-0.22,-0.27,,,
CG42399,DRSC00661,0.17,-0.2,,,
CG6688,DRSC16094,0.23,0.26,,,
CG42390,DRSC15866,-0.39,-0.33,,,
CG10237,DRSC02029,0.37,0.4,,,
LManVI (Lysosomal alpha-mannosidase VI),DRSC03224,-0.68,-0.27,,,
CG43124,DRSC13867,0.45,-0.46,,,
CG13251,DRSC11699,0.06,-0.02,,,
CG17574,DRSC06681,0.4,0.44,0.55,0.17,
AcCoAS (Acetyl Coenzyme A synthase),DRSC11477,0.44,0.31,0.28,0.39,
AcCoAS (Acetyl Coenzyme A synthase),DRSC11603,0.3,0.17,,,
AcCoAS (Acetyl Coenzyme A synthase),DRSC22850,0.13,0.11,,,
CecA2 (Cecropin A2),DRSC16604,0.39,-0.17,,,
tei (teiresias),DRSC07616,0.43,0.6,,,
CG31601,DRSC03678,0.2,0.28,,,
Inx3 (Innexin 3),DRSC14857,0.5,0.41,,,
CG7912,DRSC16343,0.05,0.03,,,
bowl,DRSC00805,0.05,0.19,,,
"AsnRS-m (Asparaginyl-tRNA synthetase, mitochondrial)",DRSC07010,0.08,0.28,,,
Usp7 (Ubiquitin-specific protease 7),DRSC18909,0.26,0.24,,,
Usp7 (Ubiquitin-specific protease 7),DRSC19604,0.38,0.11,,,
CG8369,DRSC16413,0.11,-0.71,,,
Galk (Galactokinase),DRSC10500,0.14,0.31,,,
CG7881,DRSC04898,0.12,0.13,,,
CG9294,DRSC04537,0.08,0.3,,,
lqf (liquid facets),DRSC11363,0.45,0.55,,,
Karybeta3 (Karyopherin beta 3),DRSC12355,-0.31,-0.47,,,
CG13896,DRSC08366,0.31,0.28,,,
Fas2 (Fasciclin 2),DRSC17308,-2.45,-2.11,,,reduced secretion
Fas2 (Fasciclin 2),DRSC17309,0.19,-0.23,,,
Fas2 (Fasciclin 2),DRSC18664,-0.06,0.17,,,
Ugt37B1 (UDP-glycosyltransferase family 37 member B1),DRSC03225,-0.04,0.2,,,
CG10602,DRSC02075,0.41,0.26,,,
ich (ichor),DRSC12715,-0.24,0.13,,,
ich (ichor),DRSC14448,0.23,0.46,,,
RpL24 (Ribosomal protein L24),DRSC03185,-2.84,-2.84,,,reduced secretion
CG3860,DRSC04425,0.27,0.24,,,
CG17472,DRSC02622,0.25,0.43,,,
Lcp65Ag3 (Larval cuticle protein),DRSC10345,0.19,0.31,-0.04,0.01,
Neu2 (Neuroectoderm-expressed 2),DRSC11819,0.48,0.31,,,
CG17378,DRSC02616,-0.08,0.2,,,
